Test results taken from publication PMC4476799, “Englerin A Agonizes the TRPC4/C5 Cation Channels to Inhibit Tumor Cell Line Proliferation” (PLoS ONE, 2015).
Further values from the same series stand in other lists.

Test system: cancer cell lines from the cancer cell line encyclopedia (CCLE)
Test: Cell line profiling (CLiP) proliferation experiment
Type: cell-based
Parameters: ACTIVITY_AREA: scale not given here; AMAX: unit not given here
Method: Compound profiling experiment and data analysis was performed as previously described. Data was imported and plotted using the Tibco Spotfire DXP application. Lines were categorized as sensitive, intermediate and refractory as follows: Amax<-40 & Inflection Point <2 ~ Sensitive, Amax>-20 & Inflection Point >10 ~ Refractory, all else were called Intermediate. Cancer Cell line HG-U133 Plus 2 data was processed and normalized as described. […] Five sets of refractory cell lines were generated from the pool of refractory cell lines trying to match the lineage composition of the set of sensitive cell lines. The limma package was used as previously described to perform the statistical comparison.

[1] = cell line HPB-ALL (haematopoietic_and_lymphoid_tissue, acute_lymphoblastic_T_cell_leukaemia)
[2] = cell line HPB-ALL, haematopoietic_and_lymphoid_tissue
[3] = cell line HRT-18, large_intestine
[4] = cell line HT55, large_intestine
[5] = cell line HT115, large_intestine
[6] = cell line HT, haematopoietic_and_lymphoid_tissue
[7] = cell line HT-29, large_intestine
[8] = cell line HT-1376, urinary_tract
[9] = cell line HTK-, haematopoietic_and_lymphoid_tissue
[10] = cell line Hs 611.T, haematopoietic_and_lymphoid_tissue

## CC(C)[C@@]12C[C@@H](O)[C@@](C)(O1)[C@@H]1CC[C@@H](C)[C@H]1[C@@H]2OC(=O)/C=C/c1ccccc1 [Englerin B]
Cell line HLC-1
  RESPONSE: INTERMEDIATE
Cell line HLC-1, lung
  ACTIVITY_AREA: 32.85
  AMAX: -47.99
  RESPONSE: INTERMEDIATE
Cell line HLF
  ACTIVITY_AREA: 27.05
  AMAX: -47.22
  RESPONSE: INTERMEDIATE
Cell line HLF, liver
  ACTIVITY_AREA: 27.05
  AMAX: -47.22
  RESPONSE: INTERMEDIATE
Cell line HMC-1-8
  ACTIVITY_AREA: 36.92
  AMAX: -50.5
  RESPONSE: INTERMEDIATE
Cell line HMC-1-8, breast
  ACTIVITY_AREA: 36.92
  AMAX: -50.5
  RESPONSE: INTERMEDIATE
Cell line HMCB
  ACTIVITY_AREA: 13.52
  AMAX: -46.55
  RESPONSE: INTERMEDIATE
Cell line HMCB, skin
  ACTIVITY_AREA: 13.52
  AMAX: -46.55
  RESPONSE: INTERMEDIATE
[1]
  ACTIVITY_AREA: 20
  AMAX: -58.16
  RESPONSE: INTERMEDIATE
[2]
  ACTIVITY_AREA: 20
  AMAX: -58.16
  RESPONSE: INTERMEDIATE
Cell line HRT-18
  ACTIVITY_AREA: 47.39
  AMAX: -65.56
  RESPONSE: INTERMEDIATE
[3]
  ACTIVITY_AREA: 47.39
  AMAX: -65.56
  RESPONSE: INTERMEDIATE
Cell line HT
  ACTIVITY_AREA: 17
  AMAX: -2.95
  RESPONSE: REFRACTORY
Cell line HT55
  ACTIVITY_AREA: 21.08
  AMAX: -3.91
  RESPONSE: REFRACTORY
[4]
  ACTIVITY_AREA: 21.08
  AMAX: -3.91
  RESPONSE: REFRACTORY
Cell line HT115
  ACTIVITY_AREA: 76.16
  AMAX: -55.16
  RESPONSE: INTERMEDIATE
[5]
  ACTIVITY_AREA: 76.16
  AMAX: -55.16
  RESPONSE: INTERMEDIATE
[6]
  ACTIVITY_AREA: 17
  AMAX: -2.95
  RESPONSE: REFRACTORY
Cell line HT-29
  ACTIVITY_AREA: 70.42
  AMAX: -59.2
  RESPONSE: INTERMEDIATE
[7]
  ACTIVITY_AREA: 70.42
  AMAX: -59.2
  RESPONSE: INTERMEDIATE
Cell line HT-144
  ACTIVITY_AREA: 46.48
  AMAX: -32.14
  RESPONSE: INTERMEDIATE
Cell line HT-144, skin
  ACTIVITY_AREA: 46.48
  AMAX: -32.14
  RESPONSE: INTERMEDIATE
Cell line HT-1080
  ACTIVITY_AREA: 7.34
  AMAX: -0.25
  RESPONSE: REFRACTORY
Cell line HT-1080, soft_tissue
  ACTIVITY_AREA: 7.34
  AMAX: -0.25
  RESPONSE: REFRACTORY
Cell line HT-1376
  ACTIVITY_AREA: 133.89
  AMAX: -42.01
  RESPONSE: INTERMEDIATE
[8]
  ACTIVITY_AREA: 133.89
  AMAX: -42.01
  RESPONSE: INTERMEDIATE
Cell line HTK-
  ACTIVITY_AREA: 27.8
  AMAX: -51.74
  RESPONSE: INTERMEDIATE
[9]
  ACTIVITY_AREA: 27.8
  AMAX: -51.74
  RESPONSE: INTERMEDIATE
Cell line HUP-T3
  ACTIVITY_AREA: 9.72
  AMAX: -29.27
  RESPONSE: INTERMEDIATE
Cell line HUP-T3, pancreas
  ACTIVITY_AREA: 9.72
  AMAX: -29.27
  RESPONSE: INTERMEDIATE
Cell line Hey-A8
  ACTIVITY_AREA: 77.57
  AMAX: -44.95
  RESPONSE: INTERMEDIATE
Cell line Hey-A8, ovary
  ACTIVITY_AREA: 77.57
  AMAX: -44.95
  RESPONSE: INTERMEDIATE
Cell line Hs 294T
  ACTIVITY_AREA: 50.66
  AMAX: -37.15
  RESPONSE: INTERMEDIATE
Cell line Hs 294T, skin
  ACTIVITY_AREA: 50.66
  AMAX: -37.15
  RESPONSE: INTERMEDIATE
Cell line Hs 571.T
  ACTIVITY_AREA: 42.86
  AMAX: -75.68
  RESPONSE: INTERMEDIATE
Cell line Hs 571.T, ovary
  ACTIVITY_AREA: 42.86
  AMAX: -75.68
  RESPONSE: INTERMEDIATE
Cell line Hs 578T
  ACTIVITY_AREA: 18.42
  AMAX: -43.69
  RESPONSE: INTERMEDIATE
Cell line Hs 578T, breast
  ACTIVITY_AREA: 18.42
  AMAX: -43.69
  RESPONSE: INTERMEDIATE
Cell line Hs 611.T
  ACTIVITY_AREA: 40.16
  AMAX: -68.78
  RESPONSE: INTERMEDIATE
[10]
  ACTIVITY_AREA: 40.16
  AMAX: -68.78
  RESPONSE: INTERMEDIATE
Cell line Hs 695T
  ACTIVITY_AREA: 4.29
  AMAX: -16.44
  RESPONSE: REFRACTORY
Cell line Hs 695T, skin
  ACTIVITY_AREA: 4.29
  AMAX: -16.44
  RESPONSE: REFRACTORY
Cell line Hs 729
  ACTIVITY_AREA: 88.04
  AMAX: -35.93
  RESPONSE: INTERMEDIATE
Cell line Hs 729, soft_tissue
  ACTIVITY_AREA: 88.04
  AMAX: -35.93
  RESPONSE: INTERMEDIATE
Cell line Hs 766T
  ACTIVITY_AREA: 126.47
  AMAX: -40.46
  RESPONSE: INTERMEDIATE
Cell line Hs 766T, pancreas
  ACTIVITY_AREA: 126.47
  AMAX: -40.46
  RESPONSE: INTERMEDIATE
Cell line Hs 936.T
  ACTIVITY_AREA: 11.99
  AMAX: -23.37
  RESPONSE: INTERMEDIATE
Cell line Hs 936.T, skin
  ACTIVITY_AREA: 11.99
  AMAX: -23.37
  RESPONSE: INTERMEDIATE
Cell line Hs 939.T
  ACTIVITY_AREA: 21.39
  AMAX: 4.1
  RESPONSE: REFRACTORY
Cell line Hs 939.T, skin
  ACTIVITY_AREA: 21.39
  AMAX: 4.1
  RESPONSE: REFRACTORY
Cell line Hs 940.T, skin
  ACTIVITY_AREA: 53.93
  AMAX: -48.14
  RESPONSE: INTERMEDIATE
Cell line Hs 944.T
  ACTIVITY_AREA: 34.71
  AMAX: -61.74
  RESPONSE: INTERMEDIATE
Cell line Hs 944.T, skin
  ACTIVITY_AREA: 34.71
  AMAX: -61.74
  RESPONSE: INTERMEDIATE
Cell line HuG1-N
  ACTIVITY_AREA: 135.88
  AMAX: -58.8
  RESPONSE: INTERMEDIATE
Cell line HuG1-N, stomach
  ACTIVITY_AREA: 135.88
  AMAX: -58.8
  RESPONSE: INTERMEDIATE
Cell line IGR-1, skin
  ACTIVITY_AREA: 22.7
  AMAX: 1.27
  RESPONSE: REFRACTORY
Cell line IGR-37
  ACTIVITY_AREA: 61.7
  AMAX: -54.26
  RESPONSE: INTERMEDIATE
Cell line IGR-37, skin
  ACTIVITY_AREA: 61.7
  AMAX: -54.26
  RESPONSE: INTERMEDIATE
Cell line IGR-39
  ACTIVITY_AREA: 70.27
